From PMC12040169 (PLOS Biology, 2025)
Some of the results follow.

These compounds were tested on T1, CTL2-GFP (C. trachomatis L2/434/Bu, GFP-expressing). Conditions: bulk GFP, single well; 28.5 h, 10 µM; inhibitor.
T1 construct: L2/434/Bu, GFP-expressing
Design: species or system HeLa; Intracellular C. trachomatis growth in HeLa cells, bulk GFP fluorescence relative to DMSO

| SMILES | % of control remaining [%] |
| --- | --- |
| COc1cccc(-c2csc(N3CCN(C(=O)Nc4ccccc4)CC3)n2)c1 [CBK070275] | 103.399 |
| S=c1[nH]nc(COc2ccccc2)n1C1CCCCC1 [CBK014411] | 119.559 |
| CC(C)(CN1CCCC1)CN1CCC(O)(c2ccccc2F)CC1 [CBK282798] | 132.425 |
| O=C1NCCNC(=O)C2(C/C=C/COc3ccccc31)CCN(C(=O)CCN1CCCCC1)CC2 [CBK292026] | 96.0209 |
| CCC1CCCCN1C(=O)c1ccnc(C)c1 (centres unmarked) [CBK081093] | 111.748 |
| Cc1nc(C(Cc2ccsc2)NC(=O)C2CCC(=O)N2)sc1C (centres unmarked) [CBK284780] | 119.953 |
| O=C(O)Cn1cnc(-c2ccc(Br)cc2)c1 [CBK262441] | 131.41 |
| O=C(CN(c1cc(C(F)(F)F)ccc1Cl)S(=O)(=O)c1ccccc1)NCc1cccnc1 [CBK264607] | 100.263 |
| CCOC(=O)c1ccc(N2CC(C(=O)O)CC2=O)cc1 (centres unmarked) [CBK268106] | 89.2998 |
| COC(=O)c1sccc1NS(=O)(=O)c1ccccc1C(F)(F)F [CBK034717] | 93.4813 |
| Cc1ccc2[nH]c(-c3cncn3C(C)CN3CCOCC3)c(C)c2c1 (centres unmarked) [CBK281794] | 96.3779 |
| O=C(Cc1ccccn1)NC(Cc1cccs1)c1ccccn1 (centres unmarked) [CBK282243] | 122.784 |
| O=C(CSc1nnc2c(n1)[nH]c1ccccc12)NCCOc1ccccc1 [CBK268358] | 96.0093 |
| O=C(Nc1cccc(S(=O)(=O)N2CCCC2)c1)c1nc[nH]n1 [CBK268353] | 103.791 |
| CCN1CCC(Oc2nccnc2OCCN2CCOCC2)CC1 [CBK082931] | 144.764 |
| O=S(=O)(Nc1cccc(C(F)(F)F)c1)c1ccc(N2CCCNCC2)c2ccccc12 [CBK003929C] | 98.3693 |
| CCCCSc1nnc(-c2ccc(Br)cc2)o1 [CBK027012] | 122.228 |
| COc1ccc2sc(C)nc2c1 [CBK028488] | 163.066 |
| Cc1ncc(CN(C)C(=O)c2cccc(NC(=O)C3CCCCC3)c2)s1 [CBK306295] | 140.582 |
| O=C(N/N=C/c1c(O)ccc2ccccc12)c1cnccn1 [CBK262400] | 109.029 |
| NS(=O)(=O)c1ccc(CCNC2CC(=O)N(CCc3ccccc3)C2=O)cc1 (centres unmarked) [CBK263502] | 100 |
| COC(=O)C1C(=O)NC(SCC(=O)Nc2cccc(Cl)c2C)=C(C#N)C1c1ccccc1F (centres unmarked) [CBK265830] | 193.054 |
| CCOc1cc(/C=C2\SC(=S)N(NC(=O)c3cccnc3)C2=O)ccc1O [CBK262759] | 100.285 |
| O=C(CSc1ccc(-c2ccc(-n3ccnc3)cc2)nn1)NCc1ccco1 [CBK287717] | 110.56 |
| CN(C/C=C/c1ccccc1[N+](=O)[O-])CCc1ccccn1 [CBK261890] | 111.618 |
| C[C@@H]1CN(C(=O)c2cscn2)C[C@H](C)O1 [CBK200371] | 99.4324 |
| CCOC(=O)C1(Cc2cc(-c3ccccc3F)no2)CCCNC1 (centres unmarked) [CBK284577] | 165.536 |

A different layout for 3 compounds above:
SMILES | % of control remaining [%]
O=C(O)Cn1cnc(-c2ccc(Br)cc2)c1 [CBK262441] | 131.41
CCN1CCC(Oc2nccnc2OCCN2CCOCC2)CC1 [CBK082931] | 144.764
CCOc1cc(/C=C2\SC(=S)N(NC(=O)c3cccnc3)C2=O)ccc1O [CBK262759] | 100.285

Next part.

| SMILES | % of control remaining [%] |
| --- | --- |
| Cn1ccnc1C1(O)CCN(C(=O)Cc2ccccc2F)CC1 [CBK283585] | 125.056 |
| Cc1ccc(C(=O)NCCCN2CCC3(CC2)OCCc2c3[nH]c3ccccc23)cc1 [CBK113485] | 19.9429 |
| O=C(CO)N1CC2(CCN(CCC(c3ccccc3)c3ccccc3)CC2)c2ccccc21 [CBK131513] | 85.9925 |
| CC(C)(C)c1ccc(-c2ccc3ccc(=O)[nH]c3n2)cc1 [CBK073716] | 132.987 |
| Cc1oc(C2CC2)cc1C(=O)N1CCCC1c1nc2ccccc2[nH]1 (centres unmarked) [CBK283741] | 120.203 |
| O=c1nc(-c2cc(Br)cs2)[nH]c2ccc(Cl)cc12 [CBK018959] | 113.652 |
| CCn1c(CN2CC(C)CC(C)C2)nc2c1c(=O)n(C)c(=O)n2C (centres unmarked) [CBK306030] | 111.24 |
| O=C(O)c1ccc(/C=N\NC(=O)C2COc3cc4ccccc4cc3O2)cc1 (centres unmarked) [CBK262792] | 100.965 |
| Cc1cnc(CNS(=O)(=O)c2c(C)noc2C)cn1 [CBK062328] | 108.01 |
| Cc1ccc(S(=O)(=O)Nc2ccccc2C(N)=O)cc1 [CBK056893] | 106.27 |
| NC(CC(=O)O)c1ccc(OCCc2ccccc2)cc1 (centres unmarked) [CBK287053] | 134.414 |
| O=C(CSc1nnc(-c2cccnc2)n1-c1ccc(Br)cc1)Nc1cc(C(F)(F)F)ccc1Cl [CBK266099] | 103.818 |
| O=C(NC1CCN(C(=O)CCn2ccc3ccncc32)CC1)C1CC1 [CBK284718] | 139.713 |
| Nc1ccc(C(=O)Nc2ccc(Nc3cc(-c4ccccc4OCc4ccccc4)ncn3)cc2)cc1 [CBK091092] | 171.036 |
| Cn1c(=O)[nH]c(=O)c2c1nc(CN1CCOCC1)n2CCc1ccccc1 [CBK269910] | 124.208 |
| CNc1sc(C(=O)c2ccc(OC)c(OC)c2)c(N)c1C#N [CBK270194] | 130.542 |
| CC(=O)Nc1cc(NC(=O)CCCC(=O)O)ccc1Cl [CBK263949] | 100 |
| O=C(c1ccc(Br)o1)n1cc(C(F)(F)F)ccc1=O [CBK022391] | 108.543 |
| CCOC(=O)N1CCC(NC(=O)c2cnn3c(C)c(Cc4ccccc4)c(C)nc23)CC1 [CBK160293] | 106.622 |
| COc1c(Cl)cc(Cl)cc1CNCc1cccnc1 [CBK270142C] | 141.371 |
| CC(C)(C)CC(=O)N[C@H]1C[C@H]2C(=O)Nc3ccccc3C(=O)N2C1 [CBK289352] | 104.587 |
| CCOC(=O)c1sc(NS(=O)(=O)c2ccc(C(=O)O)cc2)cc1C [CBK296623] | 138.146 |
| CN(c1nc(-c2cccnc2)cn2ccnc12)C1CCCCC1 [CBK093609] | 117.612 |
| COc1ccc(C2(CNC(=O)c3ccc(C)cc3)CCOCC2)cc1 [CBK067060] | 95.4389 |
| COc1cc(C#N)ccc1OCc1ccc2nc(C(F)(F)F)cc(Cl)c2c1 [CBK002589] | 72.1028 |
| COCC(=O)N1CCN2C(=O)[C@@H]3C[C@@H](OCc4ccc(F)cc4)CN3C(=O)[C@@H]2C1 [CBK289605] | 126.188 |
| COc1ccc(-c2cnc(N)c(N3CCN(C)CC3)n2)c(OC)c1OC [CBK063489] | 109.28 |

Already shown: an excerpt of the list.

| SMILES | % of control remaining [%] |
| --- | --- |
| CC(=O)Nc1cc(NC(=O)CCCC(=O)O)ccc1Cl [CBK263949] | 100 |
| O=C(c1ccc(Br)o1)n1cc(C(F)(F)F)ccc1=O [CBK022391] | 108.543 |

Next structures

| SMILES | % of control remaining [%] |
| --- | --- |
| CCCNC(=O)Cn1ncc2c3sc(C)cc3n(CC)c2c1=O [CBK284171] | 125.794 |
| COc1ccc(S(=O)(=O)Nc2nc3c(s2)C(=O)CC(C)(C)C3)cc1 [CBK095611] | 114.847 |
| O=C(O)C(c1c[nH]c2cc(F)ccc12)N1CCN(c2ccccc2)CC1 (centres unmarked) [CBK286675] | 128.116 |
| Cc1cc(S(=O)(=O)NCC(=O)OC(C)C)c(C)cc1Cl [CBK044196] | 106.856 |
| CCNC(=O)c1cncc(-c2[nH]nnc2-c2ccccc2)c1 [CBK160354] | 98.0553 |
| CCOC(=O)CN1CCC(Oc2nccnc2OC2CCCCC2)CC1 [CBK082867T] | 88.3707 |
| CN1CCN(S(=O)(=O)c2ccc(NC(=O)c3cc(-c4cccnc4)nc4ccc(Cl)cc34)cc2)CC1 [CBK267734] | 129.814 |
| Cc1cc(NC(=O)c2c(F)cccc2F)c2ccccc2n1 [CBK122737] | 121.727 |
| Cc1ccc(C(=O)N2CCC(O)(c3cccnc3F)CC2)o1 [CBK284358] | 118.211 |
| O=C(OCCN1C[C@H]2CCCCC2C1c1ccccc1)c1ccc(Br)cc1 (some centres unmarked) [CBK016175C] | 138.011 |
| Cc1ccc([N+](=O)[O-])cc1NC(=O)CSC1=NCCS1 [CBK267489] | 130.532 |
| O=C(O)CC(Cc1ccc(Cl)cc1)C(=O)NCc1ccccc1 (centres unmarked) [CBK286984] | 107.469 |
| CNC(=O)c1c(C)nc2ccccc2c1SCCC(=O)O [CBK154987T] | 116.288 |
| CCSc1ccc(-c2cn3ccnc3c(N3CCN(CCN(C)C)CC3)n2)cc1 [CBK066662] | 205.336 |
| Cc1nc(NC(CC(C)C)C(=O)O)c2nc(C)oc2n1 (centres unmarked) [CBK022157] | 124.124 |
| Cn1ccnc1C1(O)CC2CCC(C1)N2C(=O)c1cccc(F)c1 (centres unmarked) [CBK284089] | 129.881 |
| O=C1NN(c2cccc(Cl)c2)C(=O)/C1=C\c1ccc(-c2ccc3c(c2)C(=O)NC3=O)o1 [CBK262970] | 110.228 |
| Cc1cc(C)c(NS(=O)(=O)c2ccc(NC(=S)Nc3ccc(S(N)(=O)=O)cc3)cc2)c(C)c1 [CBK267005] | 106.598 |
| O=C(c1cscn1)N1CCCCC1c1nc2ccccc2[nH]1 (centres unmarked) [CBK283394] | 123.736 |
| Cc1cc(Oc2ccccc2)nc(Oc2ccc(OCC(N)=O)nn2)n1 [CBK266687] | 158.56 |
| CCCc1c(C)nc2ccccc2c1SCC(=O)O [CBK263558] | 100 |
| COC(=O)c1c(NC(=S)NCc2cccs2)sc(C)c1-c1ccccc1 [CBK266943] | 162.052 |
| O=C(c1cccnc1N1CCCCC1)N1CCCCC1 [CBK025882] | 123.574 |
| O=C(Cc1cc(F)c(F)c(F)c1)Nc1ccc2ncccc2c1 [CBK159811] | 110.757 |
| O=C(C1CCCN(c2nc3c(-c4ccccc4)csc3c(=O)[nH]2)C1)N1CCOCC1 (centres unmarked) [CBK215582] | 132.036 |
| Cc1nc(C)c(C(=O)N2CCC(c3cc4c(C)cccc4cn3)CC2)o1 [CBK285186] | 55.555 |
